Experimental data as given in patent US10710968B2 (Hadasit Medical Research Services and Development Ltd., priority 2016, dated 2020).
For at least one compound, name, drawing or mass did not settle the structure.

Test system: HCC827 cells (EGFR delE746-A750)
Assay: Cell growth inhibition, methylene blue assay, HCC827
Format: cell-based, human
Conditions: HCC827, Activating (delE746-A750), 72 hours, mean±SD

**Q.** `C#Cc1cccc(Nc2ncnc3cc(OCCOC)c(OCCF)cc23)c1` [6-O-FEE, 6-O-fluoroethylerlotinib] was tested. Which “IC50 (cell growth)” value did it give?
**A.** Its value is 0. 007 ± 0.01 μM.
